Structures are written as SMILES. Some of the results follow. Shown are side measurements of this screen, not its main read-out; they come without a call. The list favours compounds with an active or inconclusive main result. Words in brackets tell the shape of the fitted curve; partial curves, single points and poor fits give uncertain potencies.

The nature of this assay: qHTS Assay to Find Inhibitors of Chronic Active B-Cell Receptor Signaling. As to conditions: ABC-DLBCL IkBa-CBG/CBR reporter, luminescence ratio (green luciferase fused to IkBa over red control in TMD8 lymphoma cells), 4 h. A digest of the protocol: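 Cell line TMD8 (human ABC DLBCL), stably expressing tet-inducible CBG68-IkBa fusion and CBR; IMDM/0.5% FBS; cpd up to 46 uM; dox induction, 4 h, 37C/5% CO2; dual luminescence; green/red ratio; MG132 control.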
On the technique in general: In qHTS, concentration-response curves come from the screen itself.

[1] abbreviates: measured here: CBR red luminescence, cell number.
Setting [2] is: measured here: IkBa-CBG green luminescence.

As for `COc1ccc(N2CCN(C(c3ccccc3F)c3sc4nc(-c5ccco5)nn4c3O)CC2)cc1` (stereo not given), the half-maximal activity concentration (AC50) (commonly the midpoint of the concentration-response curve, whichever way the signal moves) under setting [1] is 25.1 µM [rising, partial curve, poor fit].
On to `C[C@H](CO)N1C[C@H](C)[C@@H](CN(C)S(C)(=O)=O)Oc2c(NC(=O)Nc3ccc4c(c3)OCO4)cccc2C1=O`, for which the AC50 under setting [1] was 16.4 µM [rising, partial curve, poor fit].
Still for that read-out and setting: under `O=C(O)CC(CCc1ccccc1)OC1OC(CO)C(O)C(O)C1O` (stereo not given) stands 17.8 µM [rising, partial curve, poor fit].
Same read-out and setting: under `COC(=O)c1cc(=O)nc2sc(-c3ccc(F)cc3)nn12` stands 11.2 µM [rising, partial curve, poor fit]; under `COc1ccc2nc(-c3ccccc3)cc(C(=O)OCC(=O)N3CC(C)OC(C)C3)c2c1` (stereo not given), 0.206 µM [rising, full curve, poor fit]; under `O=C(Cn1nc(-c2ccc(N3CCOCC3)c([N+](=O)[O-])c2)c2ccccc2c1=O)N1CCCCC1`, 25.9 µM [rising, single point].
Turning to `Cc1cccc2cc(CN(CCCO)C(=O)Nc3cccc(Cl)c3)c(=O)[nH]c12`, under setting [1], the AC50 was 20 µM [falling, single point].
In the case of `Cc1ccc(/C(N)=N/OC(=O)Cc2cccs2)cc1`, the AC50 under setting [1] is 0.891 µM [rising, full curve].
The same measure, in the same setting: under `Cc1cc(OCCN2CCCCC2)nc2ccccc12` stands 2.59 µM [falling, partial curve, poor fit]; under `CCC1(CC)Cc2ccccc2-c2nc(NN)[nH]c(=O)c21`, 28.2 µM [falling, single point].
On the same count and under the same terms, for `Cc1cc(C)c(C2C3=C(Nc4c2c(C)nn4-c2ccccn2)c2ccccc2C3=O)c(C)c1` (stereo not given) the value was 2.91 µM [rising, partial curve, poor fit].
Consider `COc1ccc(/C=C/c2nc3ccccc3c(=O)o2)cc1`, for which the concentration at half-maximal activity (AC50) under setting [1] was 5.62 µM [falling, full curve, poor fit].
Still for that read-out and setting: under `Brc1cccc(CN2CCN(c3ncccn3)CC2)c1` stands 11.2 µM [rising, partial curve]; under `Cc1c(C)c2c(OCC(=O)NCCCO)cc3c(c2oc1=O)CCC(C)(C)O3`, 1.26 µM [rising, single point].
On the same count and under the same terms, for `C=CCNC(=O)c1onc(CSc2ccccc2CC)c1C(=O)O` the value was 5.62 µM [falling, partial curve].
Same read-out and setting: under `Cn1c(SCc2nc(-c3ccc(Br)cc3)no2)nnc1-c1ccco1` stands 14.6 µM [rising, single point]; under `O=C(NC1CCS(=O)(=O)C1)c1cn(-c2ccccc2)nc1-c1ccccc1` (stereo not given), 8.91 µM [rising, partial curve, poor fit].
As to `CC(C)NC(=O)c1ccc(Sc2ccccc2)c([N+](=O)[O-])c1`, the concentration at half-maximal activity (AC50) under setting [1] is 0.0103 µM [rising, full curve, poor fit].
Still for that read-out and setting: under `CCCCCOc1ccc(CSC(=N)N)cc1[N+](=O)[O-]` stands 11.2 µM [falling, partial curve]; under `O=C1NC(=O)/C(=C\c2ccccc2OCc2ccc([N+](=O)[O-])cc2)N1`, 1.64 µM [rising, full curve, poor fit].
The same measure, in the same setting: under `CCOC(=O)C1=C(C)NC(C)=C(C(=O)OCC)C1C(=O)OCC(=O)N(CC)C1CCS(=O)(=O)C1` (stereo not given) stands 3.16 µM [rising, full curve, poor fit]; under `CC12CCC(C(=O)N3CCCCCC3)(OC1=O)C2(C)C` (stereo not given), 0.411 µM [rising, partial curve, poor fit].
On the same count and under the same terms, for `O=C(NCc1cccs1)c1cccn2c(=O)c3sccc3nc12` the value was 3.55 µM [falling, partial curve, poor fit].
Take `Cc1sc2nc(COC(=O)c3c(F)cccc3F)[nH]c(=O)c2c1C`: under setting [1], the half-maximal activity concentration (AC50) is 4.47 µM [rising, partial curve, poor fit].
Take `C/C(=N\Nc1ccc([N+](=O)[O-])cc1)c1ccc(C#N)cc1`: the AC50 under setting [1] is 0.316 µM [rising, full curve, poor fit].
For `CC1=Nc2cc(C(=O)NCC3CCCO3)ccc2Sc2ccc(C)cc21` (stereo not given), the AC50 runs as follows: under setting [1], 3.16 µM [rising, full curve]; under setting [2], 3.98 µM [falling, full curve].
As for `Cc1ccc(C(=O)N[C@H](C(=O)OCC(=O)NC2CCS(=O)(=O)C2)C(C)C)cc1` (stereo not given in full), the half-maximal activity concentration (AC50) under setting [1] is 16.4 µM [rising, single point].
For the molecule `Cc1cccc(-n2cnc3sc(C)c(C)c3c2=O)c1`, the AC50 under setting [1] was 14.1 µM [falling, single point].
Same read-out and setting: under `CN(C)CCCNC(=O)c1cc2c3ccccc3n(C)c2s1` stands 7.08 µM [falling, partial curve, poor fit]; under `C/C(=N\NC(=O)c1csc(C)c1C)c1ccc(Cl)s1`, 7.31 µM [falling, partial curve]; under `O=C(COc1ccccc1)N1CCN(c2ccc([N+](=O)[O-])c(N3CCCCC3)c2)CC1`, 35.5 µM [falling, single point].
Same read-out and setting: for `CN(CC(=O)NCC1COc2ccccc2O1)S(=O)(=O)c1ccc(Cl)cc1` (stereo not given) the value was 6.51 µM [rising, single point]; for `CC1CN(S(=O)(=O)c2cccc(C(=O)OCc3cc(=O)oc4cc(O)ccc34)c2)CC(C)O1` (stereo not given), 20.6 µM [falling, single point].
Turning to `O=C(NC1CCCC1)C(c1ccncc1)N(C(=O)c1ccco1)c1ccccc1` (stereo not given), the AC50 under setting [1] is 15.8 µM [falling, partial curve, poor fit].
The same measure, in the same setting: for `COc1ccccc1/C=C/C=N/Nc1cccc(C(=O)O)c1` the value was 2.24 µM [falling, full curve].
As to `CCn1ncc(-c2csc(N)n2)c1C`, the half-maximal activity concentration (AC50) under setting [1] is 5.62 µM [rising, single point].
As to `COc1ccccc1C(=O)NCC(=O)N1CCN(S(=O)(=O)c2ccccc2C(F)(F)F)CC1`, the AC50 under setting [1] was 29.1 µM [rising, single point].
Still for that read-out and setting: under `CCc1cccc(CC)c1N1C(=O)c2cc(N3CCOCC3)c([N+](=O)[O-])cc2C1=O` stands 6.51 µM [rising, partial curve]; under `CC(=O)N1CCN(CC(=O)Nc2ccccc2C(=O)Nc2ccccc2)CC1`, 4.11 µM [rising, full curve, poor fit].
Take `Cc1cc(C)c(S(=O)(=O)N2CCC3(CC2)OCCN3S(=O)(=O)c2cccs2)c(C)c1`: the AC50 under setting [1] is 32.6 µM [falling, single point].
Same read-out and setting: under `COC(=O)c1cccc(N2C(=O)C(Cl)=C(N3CCOCC3)C2=O)c1` stands 35.5 µM [falling, single point].
The same measure, in the same setting: for `COc1ccc(NC(=O)CSc2nnc(CNC(=O)c3cccs3)o2)c(OC)c1` the value was 11.2 µM [rising, partial curve, poor fit]; for `Clc1ccc(/C=N/Nc2nnc(Cl)c3ccccc23)cc1`, 0.291 µM [falling, full curve, poor fit]; for `COc1ccc(NS(=O)(=O)c2ccc(N3CCCC3=O)cc2)cn1`, 6.31 µM [falling, single point].
Same read-out and setting: under `COc1ccc(Cn2nc(C(=O)O)c3ccccc3c2=O)cc1F` stands 0.355 µM [rising, full curve, poor fit]; under `O=C(/C=C/c1c[nH]c2ccccc12)c1ccccc1`, 8.2 µM [falling, partial curve].
For the molecule `COc1cc2ccccc2cc1C(=O)Nc1nccs1`, the concentration at half-maximal activity (AC50) is, setting by setting: under setting [1], 8.91 µM [falling, partial curve, poor fit]; under setting [2], 1.58 µM [rising, partial curve, poor fit].
On to `Cc1ccc(C)c(NC(=O)CN(C)S(=O)(=O)c2ccc(F)cc2)c1`, for which the concentration at half-maximal activity (AC50) under setting [1] was 29.1 µM [rising, single point].
Still for that read-out and setting: for `Cc1ccccc1-n1c(SC/C(O)=C(\C#N)c2nc3ccccc3[nH]2)nnc1-c1ccncc1` the value was 6.31 µM [falling, partial curve, poor fit].
On the same count and under the same terms, under `Clc1ccc(-c2nnc3sc(Cc4cccs4)nn23)cc1` stands 14.1 µM [falling, partial curve]; under `CCCCCCCN1C(N(C)C)=NC[C@@H]1Cc1ccccc1`, 23.1 µM [falling, single point]; under `COc1cccc(-n2cnc3cccc(N)c32)c1`, 29.1 µM [falling, single point].
For the molecule `CCOC(=O)c1c(N)sn(-c2ccccc2C)c1=S`, the AC50 under setting [1] was 14.1 µM [rising, partial curve, poor fit].
Take `COc1ccc(-c2[nH]ncc2CNC(C)c2ccccc2Cl)cc1F` (stereo not given): under setting [1], the concentration at half-maximal activity (AC50) was 22.4 µM [falling, single point].
On the same count and under the same terms, for `CN(C)/C=N/c1sc2c(c1C#N)CCC2` the value was 35.5 µM [rising, single point]; for `CC(=O)c1ccc(NC(=O)CSCC(=O)Nc2ccc3ccccc3c2)cc1`, 5.17 µM [falling, partial curve, poor fit].
Consider `O=C(Nc1cccc(S(=O)(=O)N2CCCCCC2)c1)c1cncc(Br)c1`, for which the AC50 under setting [1] was 16.4 µM [falling, partial curve].
The same measure, in the same setting: for `CCS(=O)(=O)Nc1cccc(-c2nc3cccnc3s2)c1` the value was 35.5 µM [falling, single point].
With `Cc1cccc(OCc2nnc(SCc3cc(=O)[nH]c4ccccc34)n2-c2ccccc2)c1`, the AC50 under setting [1] is 18.4 µM [falling, single point].
Same read-out and setting: under `CC(=O)c1cc(-c2ccccc2)n(CC(=O)Nc2ccc(C)c(C)c2)c1C` stands 18.4 µM [rising, partial curve, poor fit]; under `Cc1nn(-c2ccccc2)c(Cl)c1/C=N/Nc1ccc(Cl)c(C(=O)O)c1`, 16.4 µM [falling, single point]; under `N=C1C(c2nc3ccccc3c(=O)[nH]2)=C(O)CN1c1ccccc1`, 2.91 µM [rising, partial curve].
Regarding `CC(=O)Nc1ccc(S(=O)(=O)Nc2nccc(/C=C/c3ccccc3F)n2)cc1`, the AC50 under setting [1] was 0.501 µM [rising, full curve, poor fit].

The values above are taken from PubChem BioAssay AID493014 (National Center for Advancing Translational Sciences (NCATS), 2011).
